Assay results: paper PMC11388069

By UniProt entry, the sequences of proteins in these tests, tags left out. Where a name states a change or a piece, a line headed by the entry shows the natural chain unless it says otherwise.
UniProt P08183: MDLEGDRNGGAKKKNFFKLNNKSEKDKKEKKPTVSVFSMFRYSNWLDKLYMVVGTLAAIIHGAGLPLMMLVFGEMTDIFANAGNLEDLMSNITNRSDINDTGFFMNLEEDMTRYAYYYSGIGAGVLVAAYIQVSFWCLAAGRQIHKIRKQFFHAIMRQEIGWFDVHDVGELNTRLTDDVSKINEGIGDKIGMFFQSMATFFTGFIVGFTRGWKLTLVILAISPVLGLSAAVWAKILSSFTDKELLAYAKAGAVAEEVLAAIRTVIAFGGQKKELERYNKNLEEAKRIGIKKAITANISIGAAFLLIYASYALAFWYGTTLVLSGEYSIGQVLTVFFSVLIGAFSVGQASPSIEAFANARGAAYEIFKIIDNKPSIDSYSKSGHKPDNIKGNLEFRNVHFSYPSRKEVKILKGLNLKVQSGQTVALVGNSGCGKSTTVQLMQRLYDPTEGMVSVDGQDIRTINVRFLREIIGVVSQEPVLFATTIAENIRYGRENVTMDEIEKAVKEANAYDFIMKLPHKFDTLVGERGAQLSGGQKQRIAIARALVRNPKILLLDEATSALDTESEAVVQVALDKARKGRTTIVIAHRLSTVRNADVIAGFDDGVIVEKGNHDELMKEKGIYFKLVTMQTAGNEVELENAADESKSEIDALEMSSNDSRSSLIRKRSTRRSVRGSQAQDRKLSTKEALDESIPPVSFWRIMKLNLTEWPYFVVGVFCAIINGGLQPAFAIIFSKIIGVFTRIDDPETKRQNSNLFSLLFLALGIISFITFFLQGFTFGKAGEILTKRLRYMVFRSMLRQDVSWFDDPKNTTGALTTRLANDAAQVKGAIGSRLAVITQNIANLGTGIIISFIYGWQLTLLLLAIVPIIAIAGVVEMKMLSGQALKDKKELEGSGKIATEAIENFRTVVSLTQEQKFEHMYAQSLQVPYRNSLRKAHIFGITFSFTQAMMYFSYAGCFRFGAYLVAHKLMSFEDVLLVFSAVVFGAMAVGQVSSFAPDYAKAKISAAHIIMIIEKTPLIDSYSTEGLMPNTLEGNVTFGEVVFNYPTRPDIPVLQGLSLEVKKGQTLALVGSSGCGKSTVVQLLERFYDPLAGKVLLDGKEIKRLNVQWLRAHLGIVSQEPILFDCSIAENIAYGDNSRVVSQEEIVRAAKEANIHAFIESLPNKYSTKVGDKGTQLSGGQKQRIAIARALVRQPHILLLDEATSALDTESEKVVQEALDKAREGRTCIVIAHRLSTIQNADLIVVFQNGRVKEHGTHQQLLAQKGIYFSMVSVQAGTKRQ

Key:
Experiment in all cases: co-IP; cells transfected with P-gp, MGAT3 plus P-gp, MGAT3 plus P-gp Mut2, or full-length and truncated P-gp; immunoprecipitation and western blot
[1] = biological target: P-gp Mut2 (mutant at Asn 494) (UniProt P08183)
truncated P-gp Δ2 = biological target: truncated P-gp Δ2
truncated P-gp Δ1 = biological target: truncated P-gp Δ1

B1: VPS4A (protein, UniProt Q9UN37 1-437)
chain: MTTSTLQKAIDLVTKATEEDKAKNYEEALRLYQHAVEYFLHAIKYEAHSDKAKESIRAKCVQYLDRAEKLKDYLRSKEKHGKKPVKENQSEGKGSDSDSEGDNPEKKKLQEQLMGAVVMEKPNIRWNDVAGLEGAKEALKEAVILPIKFPHLFTGKRTPWRGILLFGPPGTGKSYLAKAVATEANNSTFFSVSSSDLMSKWLGESEKLVKNLFELARQHKPSIIFIDEVDSLCGSRNENESEAARRIKTEFLVQMQGVGNNNDGTLVLGATNIPWVLDSAIRRRFEKRIYIPLPEEAARAQMFRLHLGSTPHNLTDANIHELARKTEGYSGADISIIVRDSLMQPVRKVQSATHFKKVCGPSRTNPSMMIDDLLTPCSPGDPGAMEMTWMDVPGDKLLEPVVCMSDMLRSLATTRPTVNADDLLKVKKFSEDFGQES
binding [1]: binds | binding (truncated P-gp Δ2): no binding | binding (truncated P-gp Δ1): binds

No constants are given. Whether binding was seen depends on the method and setting. In cells and extracts the contact can be indirect. For part of these data: Binding calls can cover weak binding; strength is not graded here.
